PubChem BioAssay AID504804 | Drosophila RNAi Screening Center | 2011
Screen: 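Fly genes whose loss lessens doxorubicin-driven cell death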 (primary screen). System: Drosophila Kc cells. Knock-down reagent: long dsRNA against Drosophila genes, 0.5 µg dsRNA per well. Time to read-out: 96 h (48 h knock-down, then 48 h drug). Challenge: doxorubicin 5 µg/ml for 48 h, added 48 h after dsRNA. Measurement: 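Viability measured as cellular ATP by luminescence after 48 h knock-down then 48 h doxorubicin at 5 µg/ml; unnormalised plate counts for each replicate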. Direction: raw ATP luminescence: higher = more viable cells, protection from doxorubicin. Active means: 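Active when both duplicate wells lie at least 2 SD above the plate mean and protection is confirmed by rescreening and independent dsRNAs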.
The deposit covers about 19,000 reagents; shown is a random part of those that have a named target and a result. Over the whole deposit, 47 (0.25%) were called active. 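Signals are raw, not normalised; exact z-scores behind calls not deposited; actives needed confirmation, so some wells reaching 2 SD are inactive.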 A number with no mark means an inactive call. Names joined by + are all predicted targets of the reagent.

target gene,amplicon,"raw ATP luminescence, replicate 1","raw ATP luminescence, replicate 2"
Socs36E (Suppressor of cytokine signaling at 36E),DRSC02455,92700,71267
rod (rough deal),DRSC17047,48740,52470
CG17996 + Tsen2,DRSC02650,73550,57307
Tom (Twin of m4),DRSC11306,15813,18430
MED22 (Mediator complex subunit 22),DRSC18175,40670,52210
Ilp3 (Insulin-like peptide 3),DRSC10168,69703,71320
Schip1 (Schwannomin interacting protein 1),DRSC02851,37610,74807
CG6294 + CG6299,DRSC19980,3.37e5,3.17e5
Snp (Snipper),DRSC04524,56230,58673
CG10298,DRSC12522,60113,53120
Muc12Ea (Mucin 12Ea),DRSC19937,3.52e5,3.41e5
MED28 (Mediator complex subunit 28),DRSC15721,51590,51690
Vm26Ac (Vitelline membrane 26Aac),DRSC02329,21603,29440
Cpr11A (Cuticular protein 11A),DRSC19861,2.86e5,2.66e5
Cpr78Ca (Cuticular protein 78Ca),DRSC11651,60997,61153
CG2955,DRSC00552,94407,85113
B-H1 (BarH1),DRSC19334,1.98e5,1.84e5
hzg (herzog),DRSC10549,79550,61307
Pk34A (Protein kinase at 34A),DRSC03398,70733,90497
CG31522,DRSC12005,57540,67443
CG34353,DRSC14493,38800,49580
CG34353,DRSC14517,40830,44860
CG34353,DRSC14563,72850,57990
CG34353,DRSC15837,67270,63110
CG14154,DRSC10156,81853,53097
Gdap1,DRSC10437,1.08e5,89177
vis + achi,DRSC07277,48783,35993
CG8668,DRSC03101,1.30e5,48960
mod(mdg4) + pre-mod(mdg4)-Z + pre-mod(mdg4)-T,DRSC13477,2.13e5,1.85e5
mod(mdg4) + pre-mod(mdg4)-Z + pre-mod(mdg4)-T,DRSC17001,34190,29150
brm (brahma),DRSC11330,71543,58343
Tsp (Thrombospondin),DRSC02144,93873,82737
Tsp (Thrombospondin),DRSC02145,38520,35933
Idgf5 (Imaginal disc growth factor 5),DRSC06919,59987,55617

2 neighbouring records from above, quoted:
target gene,amplicon,"raw ATP luminescence, replicate 1","raw ATP luminescence, replicate 2"
vis + achi,DRSC07277,48783,35993
CG8668,DRSC03101,1.30e5,48960
